Data from PMC3628108.
No constants are given. Whether binding was seen depends on the method and setting. In cells and extracts the contact can be indirect. Some binding calls cover weakened binding; strength is not graded here.

By UniProt entry, the sequences of proteins in these tests, tags left out.
UniProt Q15910: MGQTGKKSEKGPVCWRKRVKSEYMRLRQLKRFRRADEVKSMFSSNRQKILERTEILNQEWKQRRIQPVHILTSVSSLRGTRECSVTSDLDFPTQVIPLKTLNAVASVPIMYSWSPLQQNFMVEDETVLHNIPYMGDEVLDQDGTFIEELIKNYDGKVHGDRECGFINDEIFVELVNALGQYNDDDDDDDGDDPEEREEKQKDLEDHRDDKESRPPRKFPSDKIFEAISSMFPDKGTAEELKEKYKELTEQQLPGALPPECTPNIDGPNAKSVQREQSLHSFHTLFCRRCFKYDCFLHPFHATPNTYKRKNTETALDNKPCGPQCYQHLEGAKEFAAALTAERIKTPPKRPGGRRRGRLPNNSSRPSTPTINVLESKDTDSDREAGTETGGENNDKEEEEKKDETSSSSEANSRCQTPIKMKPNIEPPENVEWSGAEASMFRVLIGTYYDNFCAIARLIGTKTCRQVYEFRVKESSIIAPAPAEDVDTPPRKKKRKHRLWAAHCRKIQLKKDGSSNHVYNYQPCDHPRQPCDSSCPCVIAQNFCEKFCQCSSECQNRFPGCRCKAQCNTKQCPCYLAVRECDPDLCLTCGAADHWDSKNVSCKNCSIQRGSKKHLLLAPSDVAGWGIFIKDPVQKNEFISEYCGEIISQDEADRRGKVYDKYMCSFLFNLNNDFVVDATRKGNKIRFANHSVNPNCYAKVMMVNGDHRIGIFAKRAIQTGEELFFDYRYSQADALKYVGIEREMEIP
UniProt Q9HAU4: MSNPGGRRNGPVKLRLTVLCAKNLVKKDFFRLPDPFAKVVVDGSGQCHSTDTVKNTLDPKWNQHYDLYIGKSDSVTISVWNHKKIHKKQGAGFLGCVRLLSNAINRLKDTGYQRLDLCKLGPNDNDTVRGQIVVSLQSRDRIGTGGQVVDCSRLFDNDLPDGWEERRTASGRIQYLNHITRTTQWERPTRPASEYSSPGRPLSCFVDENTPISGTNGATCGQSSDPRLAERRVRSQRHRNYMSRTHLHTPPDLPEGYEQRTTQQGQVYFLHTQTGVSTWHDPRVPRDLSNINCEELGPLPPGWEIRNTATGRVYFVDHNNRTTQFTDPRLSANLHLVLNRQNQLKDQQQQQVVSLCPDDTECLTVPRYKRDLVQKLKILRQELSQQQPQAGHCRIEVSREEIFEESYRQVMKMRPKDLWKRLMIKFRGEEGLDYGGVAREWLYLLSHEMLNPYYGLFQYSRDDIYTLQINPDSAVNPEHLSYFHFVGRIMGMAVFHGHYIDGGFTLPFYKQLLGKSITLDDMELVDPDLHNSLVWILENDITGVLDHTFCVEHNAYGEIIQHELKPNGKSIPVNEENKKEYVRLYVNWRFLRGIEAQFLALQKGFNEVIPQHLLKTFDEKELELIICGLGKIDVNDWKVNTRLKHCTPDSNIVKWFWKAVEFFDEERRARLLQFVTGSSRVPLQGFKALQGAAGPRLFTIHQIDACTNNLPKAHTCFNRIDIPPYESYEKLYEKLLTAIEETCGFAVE

Legend:
[1] = biological target: Myc-tagged EZH2 (enhancer of zeste homolog 2) (UniProt Q15910); test: co-IP; HEK 293 cells transiently transfected with Flag-tagged Smurf2 and Myc-tagged EZH2, with or without MG132
[2] = biological target: endogenous EZH2 (human (endogenous in 3A6-hMSCs)) (UniProt Q15910); test: co-IP; endogenous proteins in 3A6-hMSCs treated with NIM for 1 day, with or without MG132

binding [1]	binding [2]	Substance
binds	–	Flag-tagged Smurf2 (Smad ubiquitination regulatory factor-2) (from UniProt Q9HAU4 1-748)
–	binds	endogenous Smurf2 (from UniProt Q9HAU4 1-748)
